# Assay results published in patent US20220281999A1.
# These are yes or no findings as the source states them, for the method shown. Some entries that bind do so weakly or less than the wild type.
# Target: streptavidin (genus Streptomyces) (UniProt P22629)
# Assay: plate fluorescence assay (excitation 485 nm, emission 535 nm); binding through biotin
binder,measurement,value
"GGSGGSK (N-terminal modified with fluorescein; C-terminal modified with biotin) [biotinylated fluorescent peptide (GGSGGSK, N-terminal fluorescein, C-terminal biotin)]",binding,binds
